Experimental data reported in patent publication US11414653.

Test system: AtfA (Atf1 homolog) (Aspergillus niger)
Assay: EMSA
Conditions: LightShift EMSA, 20 min room temperature, purified recombinant protein, label: 3' biotin

Row | Sequence | binding result (6% gel 0.5x TBE) | binding result (printed strands not perfectly complementary, variant of EMSA Atf1 fungi site (ecm33 promoter))
1 | GTCAGGACTTACAGTAAAGACCG (double strand) [EMSA Atf1 yeast site] | binds | 
2 | GTCAGGACCCGCGCGCAGACCG / CGGTGTGCGCGCGGGTCCTGAC [EMSA mutated site] |  | no binding
3 | CCGTCGTAGCCCCTGAGCAGGGATAGTCAGGACTTACTGAAAGACCG / CGGTCTTTCAGTAAGTCCTGAC [EMSA Atf1 fungi site (ecm33 promoter)] | binds | 

Construct, isoform or probe ends are uncertain for at least one entry. No signal at the amounts used counts as a negative.
